{"source": "PubChem BioAssay AID504774 (Drosophila RNAi Screening Center, 2011)", "assay": "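Knock-downs that shift viability of MMS-exposed cells relative to untreated ones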 (primary screen)", "cells": "Drosophila Kc167 cells", "reagents": "long dsRNA against Drosophila genes, about 0.25 µg dsRNA per well", "time to read-out": "about 6 days: 3 days knock-down, then 3 days with or without MMS", "conditions": "methyl methanesulphonate 0.004% (w/v) for 3 days after knock-down", "detection": "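ATP-dependent luminescence as a measure of live cells in MMS-exposed wells, quantile normalised within each plate, with replicate values also given as a mean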", "scale": "mean viability with MMS and viability with MMS: higher = more surviving cells after MMS", "note": "The deposit covers about 23,000 reagents; shown is an unselected part of those that have a named target and a result. 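Values are quantile-normalised luminescence on an arbitrary scale; higher means more cells surviving MMS.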 The numbers tell different reagents against one gene apart. Names joined by + are all predicted targets of the reagent. Not all columns of the deposit are shown."}
{"gene": "CG13044 (GeneID 39795)", "reagent no.": 1, "mean viability with MMS": 3.39e6, "viability with MMS, replicate 1": 3.77e6}
{"gene": "Prosbeta2R1 (GeneID 31511)", "reagent no.": 1, "mean viability with MMS": 3.46e6, "viability with MMS, replicate 1": 3.93e6}
{"gene": "CG13308 (GeneID 39011)", "reagent no.": 1, "mean viability with MMS": 3.59e6, "viability with MMS, replicate 1": 4.06e6}
{"gene": "Ir54a + sub", "reagent no.": 1, "mean viability with MMS": 3.55e6, "viability with MMS, replicate 1": 4.00e6}
{"gene": "Spn85F (GeneID 41221)", "reagent no.": 1, "mean viability with MMS": 1.75e6, "viability with MMS, replicate 1": 4.04e6}
{"gene": "Usp7 (GeneID 32169)", "reagent no.": 1, "mean viability with MMS": 3.79e6, "viability with MMS, replicate 1": 4.31e6}
{"gene": "Usp7 (GeneID 32169)", "reagent no.": 2, "mean viability with MMS": 3.57e6, "viability with MMS, replicate 1": 3.96e6}
{"gene": "NimB4 (GeneID 34814)", "reagent no.": 1, "mean viability with MMS": 3.58e6, "viability with MMS, replicate 1": 4.04e6}
{"gene": "Wwox (GeneID 34090)", "reagent no.": 1, "mean viability with MMS": 3.72e6, "viability with MMS, replicate 1": 4.32e6}
{"gene": "Wwox (GeneID 34090)", "reagent no.": 2, "mean viability with MMS": 3.40e6, "viability with MMS, replicate 1": 3.90e6}
{"gene": "CG13723 (GeneID 39925)", "reagent no.": 1, "mean viability with MMS": 3.38e6, "viability with MMS, replicate 1": 3.79e6}
{"gene": "CG13227 (GeneID 36179)", "reagent no.": 1, "mean viability with MMS": 3.48e6, "viability with MMS, replicate 1": 4.00e6}
{"gene": "RpL34a (GeneID 43169)", "reagent no.": 1, "mean viability with MMS": 3.55e6, "viability with MMS, replicate 1": 3.92e6}
{"gene": "SppL (GeneID 43128)", "reagent no.": 1, "mean viability with MMS": 3.73e6, "viability with MMS, replicate 1": 4.23e6}
{"gene": "VhaAC45RP (GeneID 318563)", "reagent no.": 1, "mean viability with MMS": 1.68e6, "viability with MMS, replicate 1": 3.81e6}
{"gene": "TpnC4 (GeneID 35498)", "reagent no.": 1, "mean viability with MMS": 3.46e6, "viability with MMS, replicate 1": 3.86e6}
{"gene": "Gk2 (GeneID 38221)", "reagent no.": 1, "mean viability with MMS": 3.62e6, "viability with MMS, replicate 1": 4.10e6}
{"gene": "CG10866 (GeneID 38461)", "reagent no.": 1, "mean viability with MMS": 3.59e6, "viability with MMS, replicate 1": 3.99e6}
{"gene": "CG12983 (GeneID 40319)", "reagent no.": 1, "mean viability with MMS": 3.59e6, "viability with MMS, replicate 1": 4.04e6}
{"gene": "Arp6 (GeneID 32514)", "reagent no.": 1, "mean viability with MMS": 3.47e6, "viability with MMS, replicate 1": 4.03e6}
{"gene": "GILT1 (GeneID 41650)", "reagent no.": 1, "mean viability with MMS": 3.41e6, "viability with MMS, replicate 1": 3.97e6}
{"gene": "CG14265 (GeneID 31297)", "reagent no.": 1, "mean viability with MMS": 3.54e6, "viability with MMS, replicate 1": 3.95e6}
{"gene": "CG1542 (GeneID 43691)", "reagent no.": 1, "mean viability with MMS": 3.33e6, "viability with MMS, replicate 1": 3.85e6}
{"gene": "Pdp1 (GeneID 45588)", "reagent no.": 1, "mean viability with MMS": 2.76e6, "viability with MMS, replicate 1": 3.53e6}
{"gene": "Pdp1 (GeneID 45588)", "reagent no.": 2, "mean viability with MMS": 2.58e6, "viability with MMS, replicate 1": 3.51e6}
{"gene": "Pdp1 (GeneID 45588)", "reagent no.": 3, "mean viability with MMS": 3.59e6, "viability with MMS, replicate 1": 4.06e6}
{"gene": "Pdp1 (GeneID 45588)", "reagent no.": 4, "mean viability with MMS": 2.90e6, "viability with MMS, replicate 1": 3.11e6}
{"gene": "Alp9 (GeneID 38633)", "reagent no.": 1, "mean viability with MMS": 3.56e6, "viability with MMS, replicate 1": 3.90e6}
{"gene": "CG3916 (GeneID 41484)", "reagent no.": 1, "mean viability with MMS": 3.57e6, "viability with MMS, replicate 1": 4.06e6}
{"gene": "Surf1 (GeneID 44498)", "reagent no.": 1, "mean viability with MMS": 3.34e6, "viability with MMS, replicate 1": 3.68e6}
{"gene": "Surf1 (GeneID 44498)", "reagent no.": 2, "mean viability with MMS": 3.69e6, "viability with MMS, replicate 1": 4.15e6}
{"gene": "CG3342 (GeneID 31586)", "reagent no.": 1, "mean viability with MMS": 3.53e6, "viability with MMS, replicate 1": 3.96e6}
{"gene": "fu (GeneID 32855)", "reagent no.": 1, "mean viability with MMS": 3.26e6, "viability with MMS, replicate 1": 3.74e6}
{"gene": "Lint-O (GeneID 31254)", "reagent no.": 1, "mean viability with MMS": 3.41e6, "viability with MMS, replicate 1": 3.91e6}
{"gene": "stx (GeneID 32005)", "reagent no.": 1, "mean viability with MMS": 2.86e6, "viability with MMS, replicate 1": 3.62e6}
{"gene": "stx (GeneID 32005)", "reagent no.": 2, "mean viability with MMS": 3.10e6, "viability with MMS, replicate 1": 3.70e6}
{"gene": "stx (GeneID 32005)", "reagent no.": 3, "mean viability with MMS": 2.86e6, "viability with MMS, replicate 1": 3.35e6}
{"gene": "nub (GeneID 34669)", "reagent no.": 1, "mean viability with MMS": 3.54e6, "viability with MMS, replicate 1": 3.96e6}
{"gene": "nub (GeneID 34669)", "reagent no.": 2, "mean viability with MMS": 3.53e6, "viability with MMS, replicate 1": 4.05e6}
{"gene": "nub (GeneID 34669)", "reagent no.": 3, "mean viability with MMS": 3.55e6, "viability with MMS, replicate 1": 4.00e6}
{"gene": "nub (GeneID 34669)", "reagent no.": 4, "mean viability with MMS": 3.44e6, "viability with MMS, replicate 1": 3.89e6}
{"gene": "nub (GeneID 34669)", "reagent no.": 5, "mean viability with MMS": 2.96e6, "viability with MMS, replicate 1": 3.64e6}
{"gene": "CG2104 (GeneID 40702)", "reagent no.": 1, "mean viability with MMS": 3.60e6, "viability with MMS, replicate 1": 4.14e6}
{"gene": "CG4610 (GeneID 37571)", "reagent no.": 1, "mean viability with MMS": 3.54e6, "viability with MMS, replicate 1": 3.95e6}
{"gene": "CG4610 (GeneID 37571)", "reagent no.": 2, "mean viability with MMS": 3.46e6, "viability with MMS, replicate 1": 3.90e6}

Copied from the entries so far for reference:
{"gene": "GILT1 (GeneID 41650)", "reagent no.": 1, "mean viability with MMS": 3.41e6, "viability with MMS, replicate 1": 3.97e6}
{"gene": "CG14265 (GeneID 31297)", "reagent no.": 1, "mean viability with MMS": 3.54e6, "viability with MMS, replicate 1": 3.95e6}
{"gene": "CG1542 (GeneID 43691)", "reagent no.": 1, "mean viability with MMS": 3.33e6, "viability with MMS, replicate 1": 3.85e6}
{"gene": "Pdp1 (GeneID 45588)", "reagent no.": 1, "mean viability with MMS": 2.76e6, "viability with MMS, replicate 1": 3.53e6}
{"gene": "Pdp1 (GeneID 45588)", "reagent no.": 2, "mean viability with MMS": 2.58e6, "viability with MMS, replicate 1": 3.51e6}
